Test results published in publication doi:10.1101/139907.
Where two headings read alike, the source gives them in different places. No constants are given. Whether binding was seen depends on the method and setting. For some of these results: Binding seen in cells or lysates may run through a third protein. Some results given as binding are weak or reduced against the parent protein; the word gives no strength. For some of these results: Sequences can lack the tags named with a protein.

Sequences of proteins named here, by UniProt entry; tags and fusion partners are left off. A change or cut given only in a name is not applied to a line headed by its entry.
UniProt Q96EB6: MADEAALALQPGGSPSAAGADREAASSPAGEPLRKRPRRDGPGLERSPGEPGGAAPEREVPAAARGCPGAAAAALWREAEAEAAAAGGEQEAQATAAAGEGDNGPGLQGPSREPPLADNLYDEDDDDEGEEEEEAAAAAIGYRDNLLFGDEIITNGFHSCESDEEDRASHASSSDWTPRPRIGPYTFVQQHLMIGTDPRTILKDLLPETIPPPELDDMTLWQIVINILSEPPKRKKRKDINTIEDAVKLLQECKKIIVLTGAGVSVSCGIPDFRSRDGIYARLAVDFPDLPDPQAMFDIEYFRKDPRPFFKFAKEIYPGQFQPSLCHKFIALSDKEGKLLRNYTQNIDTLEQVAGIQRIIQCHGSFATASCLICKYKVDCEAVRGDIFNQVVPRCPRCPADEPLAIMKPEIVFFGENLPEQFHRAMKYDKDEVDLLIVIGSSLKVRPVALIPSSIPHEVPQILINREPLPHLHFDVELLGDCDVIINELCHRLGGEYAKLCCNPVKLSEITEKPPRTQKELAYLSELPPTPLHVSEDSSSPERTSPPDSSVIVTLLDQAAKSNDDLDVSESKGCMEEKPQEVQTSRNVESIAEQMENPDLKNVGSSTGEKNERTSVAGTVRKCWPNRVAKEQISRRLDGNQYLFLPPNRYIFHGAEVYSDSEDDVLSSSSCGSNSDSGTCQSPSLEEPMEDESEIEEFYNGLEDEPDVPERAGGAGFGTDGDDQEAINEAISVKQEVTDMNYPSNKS
UniProt Q8N6T7: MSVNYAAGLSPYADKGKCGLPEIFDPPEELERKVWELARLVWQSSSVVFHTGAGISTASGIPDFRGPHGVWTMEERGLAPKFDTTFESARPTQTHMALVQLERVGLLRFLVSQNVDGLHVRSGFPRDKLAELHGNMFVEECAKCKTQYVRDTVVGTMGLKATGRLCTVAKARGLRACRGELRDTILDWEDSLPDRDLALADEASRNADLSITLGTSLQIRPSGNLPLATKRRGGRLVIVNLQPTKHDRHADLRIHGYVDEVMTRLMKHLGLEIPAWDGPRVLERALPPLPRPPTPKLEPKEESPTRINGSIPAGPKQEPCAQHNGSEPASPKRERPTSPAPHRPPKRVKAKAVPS
UniProt Q9NRC8: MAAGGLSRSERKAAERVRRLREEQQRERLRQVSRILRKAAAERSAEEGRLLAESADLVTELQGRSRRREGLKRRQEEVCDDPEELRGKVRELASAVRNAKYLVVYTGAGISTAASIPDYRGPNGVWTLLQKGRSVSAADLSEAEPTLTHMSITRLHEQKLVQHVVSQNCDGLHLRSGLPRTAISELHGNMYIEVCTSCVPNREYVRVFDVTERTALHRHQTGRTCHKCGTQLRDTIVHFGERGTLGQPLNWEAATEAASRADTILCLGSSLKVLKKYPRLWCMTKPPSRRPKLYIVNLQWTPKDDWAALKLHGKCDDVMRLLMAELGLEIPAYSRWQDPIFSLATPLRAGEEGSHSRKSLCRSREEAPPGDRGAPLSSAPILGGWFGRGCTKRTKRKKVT
UniProt P15559: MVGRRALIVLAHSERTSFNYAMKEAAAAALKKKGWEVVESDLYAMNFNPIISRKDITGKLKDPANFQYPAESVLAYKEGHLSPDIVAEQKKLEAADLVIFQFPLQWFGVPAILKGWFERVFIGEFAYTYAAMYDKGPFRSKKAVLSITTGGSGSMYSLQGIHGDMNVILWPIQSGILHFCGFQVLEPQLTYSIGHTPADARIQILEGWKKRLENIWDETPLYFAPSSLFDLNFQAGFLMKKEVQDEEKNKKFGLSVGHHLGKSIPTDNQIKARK

How the values were obtained:
flag-SIRT1 [1] = molecular target: flag-SIRT1 (UniProt Q96EB6); experiment: co-IP
flag-SIRT1 [2] = molecular target: flag-SIRT1 (UniProt Q96EB6); experiment: co-IP; remark: listed apart in the source
flag-SIRT1 H363Y = flag-SIRT1 H363Y (UniProt Q96EB6); experiment: co-IP
flag-SIRT2 = molecular target: T1, flag-SIRT2 (UniProt Q8IXJ6); experiment: co-IP
T1 sequence: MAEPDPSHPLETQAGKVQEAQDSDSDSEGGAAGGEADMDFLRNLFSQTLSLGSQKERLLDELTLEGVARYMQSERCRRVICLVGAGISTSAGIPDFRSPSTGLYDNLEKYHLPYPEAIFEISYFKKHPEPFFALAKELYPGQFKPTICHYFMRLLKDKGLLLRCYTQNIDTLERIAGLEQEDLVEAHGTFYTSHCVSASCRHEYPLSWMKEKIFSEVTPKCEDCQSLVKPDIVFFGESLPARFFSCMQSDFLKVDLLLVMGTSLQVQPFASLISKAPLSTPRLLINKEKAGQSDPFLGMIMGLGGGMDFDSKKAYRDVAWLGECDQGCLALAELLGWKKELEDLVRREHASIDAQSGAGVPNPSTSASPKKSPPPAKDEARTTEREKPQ

flag-SIRT6 = flag-SIRT6 (UniProt Q8N6T7); experiment: co-IP
flag-SIRT7 = flag-SIRT7 (UniProt Q9NRC8); experiment: co-IP
His-SIRT1 = His-SIRT1 (UniProt Q96EB6); experiment: pull-down

Substance: NQO1 (NAD(P)H Dehydrogenase Quinone 1) (from UniProt P15559 1-274) (enzyme)
- binding (flag-SIRT1 [1]): binds
- binding (flag-SIRT1 [2]): binds
- binding (flag-SIRT1 H363Y): no binding
- binding (flag-SIRT2): binds weakly
- binding (flag-SIRT6): binds weakly
- binding (flag-SIRT7): binds weakly

Substance: NQO1, bacterially expressed and purified (from UniProt P15559 1-274) (enzyme)
- binding (His-SIRT1): binds
